PubChem BioAssay AID1259308 – NCATS – 2017
The deposit covers about 59,000 reagents; below is a part drawn at random. Over the whole deposit, about 1,510 (2.6%) are marked active. 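Calls use total luciferase alone and ignore viability, so some active siRNAs may act by altering cell number.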 The numbers tell different reagents against one gene apart. Not all columns of the deposit are shown.

Aim: 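Candidate targets for better recombinant protein yield in mammalian cells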 (primary screen)
Cells: human HEK293 embryonic kidney cells stably expressing firefly luciferase (HEK-CMV-Luc2-Hygro)
Reagents: single siRNA against human genes, 0.8 pmol siRNA per well
Time to read-out: 72 h
Detection: 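Luciferase light (ONE-Glo) measured on one replicate plate set and viability (CellTiter-Glo) on the other, scaled to a negative control siRNA, with robust z-scores and luciferase per cell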
Reading the numbers: total luciferase, z-score: higher = more reporter protein produced
Active means: 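An siRNA counts as active if its total luciferase robust z-score exceeds 3; genes with two or more such siRNAs out of three were retested with fresh siRNAs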
Meaning of the calls: active = raised luciferase; inactive = no rise

| gene | reagent | total luciferase, z-score | call |
| --- | --- | --- | --- |
| NELL1 (neural EGFL like 1) | 1 | 0.62 | inactive |
| NELL1 (neural EGFL like 1) | 2 | -1.02 | inactive |
| NELL1 (neural EGFL like 1) | 3 | -2.42 | inactive |
| KRTAP13-3 (keratin associated protein 13-3) | 1 | -0.379 | inactive |
| KRTAP13-3 (keratin associated protein 13-3) | 2 | -1.72 | inactive |
| KRTAP13-3 (keratin associated protein 13-3) | 3 | -0.419 | inactive |
| CLTRN (collectrin, amino acid transport regulator) | 1 | 0.866 | inactive |
| CLTRN (collectrin, amino acid transport regulator) | 2 | 1.66 | inactive |
| CLTRN (collectrin, amino acid transport regulator) | 3 | 0.591 | inactive |
| MAB21L4 (mab-21 like 4) | 1 | -0.298 | inactive |
| MAB21L4 (mab-21 like 4) | 2 | 0.436 | inactive |
| MAB21L4 (mab-21 like 4) | 3 | 0.471 | inactive |
| ACSL4 (acyl-CoA synthetase long chain family member 4) | 1 | -0.797 | inactive |
| ACSL4 (acyl-CoA synthetase long chain family member 4) | 2 | 0.283 | inactive |
| ACSL4 (acyl-CoA synthetase long chain family member 4) | 3 | -0.292 | inactive |
| GJA8 (gap junction protein alpha 8) | 1 | -0.83 | inactive |
| GJA8 (gap junction protein alpha 8) | 2 | 0.616 | inactive |
| GJA8 (gap junction protein alpha 8) | 3 | 1.9 | inactive |
| IGDCC3 (immunoglobulin superfamily DCC subclass member 3) | 1 | -1.19 | inactive |
| IGDCC3 (immunoglobulin superfamily DCC subclass member 3) | 2 | -2.62 | inactive |
| IGDCC3 (immunoglobulin superfamily DCC subclass member 3) | 3 | 0.231 | inactive |
| GRAPL (GRB2 related adaptor protein like) | 1 | -0.891 | inactive |
| GRAPL (GRB2 related adaptor protein like) | 2 | -0.664 | inactive |
| GRAPL (GRB2 related adaptor protein like) | 3 | 0.9 | inactive |

Reformatted: 2 of the entries above.
{"gene":"NELL1 (neural EGFL like 1)","reagent":2,"total luciferase, z-score":-1.02,"call":"inactive"}
{"gene":"NELL1 (neural EGFL like 1)","reagent":3,"total luciferase, z-score":-2.42,"call":"inactive"}
